Values of other authors in patent US20100280255A1, “PROCESS FOR MAKING SUBSTITUTED 2-AMINO-THIAZOLONES” (AMGEN INC., priority 2007, published 2010).
For at least one compound, name, drawing or mass did not settle the structure.

Test system: animal models

Structure (SMILES): CC#C[C@]1(O)CC[C@H]2[C@@H]3CCC4=CC(=O)CCC4=C3[C@@H](c3ccc(N(C)C)cc3)C[C@@]21C [RU486]
- restraint stress effects: slowed cutaneous wound healing, increased susceptibility to bacterial infection: reversed
